From article PMC7554048, “FBI-1 enhanced the resistance of triple-negative breast cancer cells to chemotherapeutic agents via the miR-30c/PXR axis” (Cell Death & Disease, 2020)
No constants are given. Whether binding was seen depends on the method and setting. Binding seen in cells or lysates may run through a third protein. Where a sequence is shown, tags or fusion partners need not be part of it.

Protein sequences, listed by entry. Tags and fused reporters are not part of them.
UniProt O95365: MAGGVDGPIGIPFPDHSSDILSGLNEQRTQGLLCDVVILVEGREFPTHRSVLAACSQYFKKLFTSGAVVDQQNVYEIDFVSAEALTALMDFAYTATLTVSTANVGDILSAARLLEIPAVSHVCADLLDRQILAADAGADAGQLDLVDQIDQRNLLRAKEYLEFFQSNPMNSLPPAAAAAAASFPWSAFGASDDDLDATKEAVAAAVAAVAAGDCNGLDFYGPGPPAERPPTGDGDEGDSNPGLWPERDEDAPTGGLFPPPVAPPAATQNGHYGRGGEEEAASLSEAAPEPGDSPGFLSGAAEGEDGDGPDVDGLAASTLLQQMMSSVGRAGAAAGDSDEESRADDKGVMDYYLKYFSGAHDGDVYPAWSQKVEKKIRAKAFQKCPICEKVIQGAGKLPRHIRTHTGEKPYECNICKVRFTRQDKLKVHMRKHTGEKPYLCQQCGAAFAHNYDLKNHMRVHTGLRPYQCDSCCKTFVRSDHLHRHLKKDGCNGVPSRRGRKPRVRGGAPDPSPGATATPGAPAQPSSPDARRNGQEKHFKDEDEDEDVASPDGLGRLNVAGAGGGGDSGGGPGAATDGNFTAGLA

Molecular target: FLAG-FBI-1 (factor that binds to inducer of short transcripts-1) (UniProt O95365)
Experiment: co-IP; TNBC PDC No. 6 (high PXR) or No. 3 (low PXR) transfected with FLAG vector or FLAG-FBI1 vector; lysed 48 h after transfection; FLAG-FBI-1 separated with beads carrying monoclonal FLAG antibody; HA-PXR examined with monoclonal HA antibody by western blot

binding: no binding
B1: HA-PXR (pregnane X receptor) (protein, UniProt O75469 1-434)
chain: MEVRPKESWNHADFVHCEDTESVPGKPSVNADEEVGGPQICRVCGDKATGYHFNVMTCEGCKGFFRRAMKRNARLRCPFRKGACEITRKTRRQCQACRLRKCLESGMKKEMIMSDEAVEERRALIKRKKSERTGTQPLGVQGLTEEQRMMIRELMDAQMKTFDTTFSHFKNFRLPGVLSSGCELPESLQAPSREEAAKWSQVRKDLCSLKVSLQLRGEDGSVWNYKPPADSGGKEIFSLLPHMADMSTYMFKGIISFAKVISYFRDLPIEDQISLLKGAAFELCQLRFNTVFNAETGTWECGRLSYCLEDTAGGFQQLLLEPMLKFHYMLKKLQLHEEEYVLMQAISLFSPDRPGVLQHRVVDQLQEQFAITLKSYIECNRPQPAHRFLFLKIMAMLTELRSINAQHTQRLLRIQDIHPFATPLMQELFGITGS
